Taken from: PubChem BioAssay AID1508597 (Cure First, 2020)
In all, the deposit lists about 2,100 reagents; this is a random part of them. 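Calls flag viability under 80% in either arm, not effects specific to rucaparib; the reference for percent is not stated.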 The record does not give: the 100% reference.

- Aim: 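Knock-downs altering ovarian cancer cell survival with or without PARP inhibitor rucaparib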 (primary screen)
- Cells: human ovarian carcinoma lines grown from tumours: OCI-P5x (papillary serous) and OCI-C5x (clear cell)
- Reagent: siRNA pool against human genes, 1.25 pmol siRNA per well
- Timing: 72 h or 96 h, depending on the cell culture
- Challenge: rucaparib 20 µM (about IC30) or vehicle, present until read-out
- Measurement: 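ATP luminescence measured at 72 or 96 h according to the culture, then normalised and expressed as percent viability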
- Direction: viability, normalised: higher = more viable cells remaining
- Hit rule: 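a well counts as a hit if its normalised viability is under 80 percent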
- Meaning of the calls: active = viability under 80%; inactive = viability 80% or more

Target gene	rucaparib or vehicle	cell line	technical replicate	viability, normalised (%)	Outcome
PARP16	Rucaparib	OCI-C5x (clear cell)	1	45.6	active
PARP16	Rucaparib	OCI-C5x (clear cell)	2	38	active
PARP16	Rucaparib	OCI-C5x (clear cell)	3	39.1	active
PARP16	Rucaparib	OCI-P5x (serous)	1	48.2	active
PARP16	Rucaparib	OCI-P5x (serous)	2	44.6	active
PARP16	Rucaparib	OCI-P5x (serous)	3	48.7	active
PARP16	Vehicle	OCI-C5x (clear cell)	1	42.1	active
PARP16	Vehicle	OCI-C5x (clear cell)	2	31.5	active
PARP16	Vehicle	OCI-C5x (clear cell)	3	47	active
PARP16	Vehicle	OCI-P5x (serous)	1	62.1	active
PARP16	Vehicle	OCI-P5x (serous)	2	66.7	active
PARP16	Vehicle	OCI-P5x (serous)	3	83.9	inactive
SLX4	Rucaparib	OCI-C5x (clear cell)	1	35.1	active
SLX4	Rucaparib	OCI-C5x (clear cell)	2	40.2	active
SLX4	Rucaparib	OCI-C5x (clear cell)	3	28.9	active
SLX4	Rucaparib	OCI-P5x (serous)	1	70.7	active
SLX4	Rucaparib	OCI-P5x (serous)	2	69.6	active
SLX4	Rucaparib	OCI-P5x (serous)	3	98.7	inactive
SLX4	Vehicle	OCI-C5x (clear cell)	1	50.1	active
SLX4	Vehicle	OCI-C5x (clear cell)	2	46.3	active
SLX4	Vehicle	OCI-C5x (clear cell)	3	30.4	active
SLX4	Vehicle	OCI-P5x (serous)	1	84.1	inactive
SLX4	Vehicle	OCI-P5x (serous)	2	79.1	active
SLX4	Vehicle	OCI-P5x (serous)	3	84.1	inactive
TAOK1	Rucaparib	OCI-C5x (clear cell)	1	65.8	active
TAOK1	Rucaparib	OCI-C5x (clear cell)	2	62.6	active
TAOK1	Rucaparib	OCI-C5x (clear cell)	3	67	active
TAOK1	Rucaparib	OCI-P5x (serous)	1	110	inactive
TAOK1	Rucaparib	OCI-P5x (serous)	2	122	inactive
TAOK1	Rucaparib	OCI-P5x (serous)	3	94	inactive
TAOK1	Vehicle	OCI-C5x (clear cell)	1	39.4	active
TAOK1	Vehicle	OCI-C5x (clear cell)	2	56	active
TAOK1	Vehicle	OCI-C5x (clear cell)	3	43.6	active
TAOK1	Vehicle	OCI-P5x (serous)	1	83.9	inactive
TAOK1	Vehicle	OCI-P5x (serous)	2	96.6	inactive
TAOK1	Vehicle	OCI-P5x (serous)	3	91.8	inactive
RPS6KL1	Rucaparib	OCI-C5x (clear cell)	1	54	active
RPS6KL1	Rucaparib	OCI-C5x (clear cell)	2	57.7	active
RPS6KL1	Rucaparib	OCI-C5x (clear cell)	3	73.4	active
RPS6KL1	Rucaparib	OCI-P5x (serous)	1	56.7	active
RPS6KL1	Rucaparib	OCI-P5x (serous)	2	60.4	active
RPS6KL1	Rucaparib	OCI-P5x (serous)	3	65.9	active
RPS6KL1	Vehicle	OCI-C5x (clear cell)	1	57.7	active
RPS6KL1	Vehicle	OCI-C5x (clear cell)	2	76.6	active
RPS6KL1	Vehicle	OCI-C5x (clear cell)	3	60.9	active
RPS6KL1	Vehicle	OCI-P5x (serous)	1	64.1	active
RPS6KL1	Vehicle	OCI-P5x (serous)	2	63.4	active
RPS6KL1	Vehicle	OCI-P5x (serous)	3	74.4	active
FER	Rucaparib	OCI-C5x (clear cell)	1	42.1	active
FER	Rucaparib	OCI-C5x (clear cell)	2	55.3	active
FER	Rucaparib	OCI-C5x (clear cell)	3	40	active
FER	Rucaparib	OCI-P5x (serous)	1	83.9	inactive
FER	Rucaparib	OCI-P5x (serous)	2	89.6	inactive
FER	Rucaparib	OCI-P5x (serous)	3	75.8	active
FER	Vehicle	OCI-C5x (clear cell)	1	45.5	active
FER	Vehicle	OCI-C5x (clear cell)	2	41.5	active
FER	Vehicle	OCI-C5x (clear cell)	3	39	active
FER	Vehicle	OCI-P5x (serous)	1	84.6	inactive
FER	Vehicle	OCI-P5x (serous)	2	87.8	inactive
FER	Vehicle	OCI-P5x (serous)	3	75	active

Copied from the listing, 10 entries:
Target gene	rucaparib or vehicle	cell line	technical replicate	viability, normalised (%)	Outcome
SLX4	Vehicle	OCI-C5x (clear cell)	3	30.4	active
SLX4	Vehicle	OCI-P5x (serous)	1	84.1	inactive
SLX4	Vehicle	OCI-P5x (serous)	2	79.1	active
SLX4	Vehicle	OCI-P5x (serous)	3	84.1	inactive
TAOK1	Rucaparib	OCI-C5x (clear cell)	1	65.8	active
TAOK1	Rucaparib	OCI-C5x (clear cell)	2	62.6	active
TAOK1	Rucaparib	OCI-C5x (clear cell)	3	67	active
TAOK1	Rucaparib	OCI-P5x (serous)	1	110	inactive
TAOK1	Rucaparib	OCI-P5x (serous)	2	122	inactive
TAOK1	Rucaparib	OCI-P5x (serous)	3	94	inactive
